Values quoted from earlier work as cited in paper PMC11170107, “Development of a new hazard scoring system in primary neuronal cell cultures for drug-induced acute neuronal toxicity identification in early drug discovery” (Frontiers in Pharmacology, 2024).

Columns and labels:
[1] = Supplementary Table S1; cited from earlier work
[2] = seizure ADR frequency in SIDER; ref Campillos et al., 2008; Kuhn et al., 2010; cited from earlier work

## CN1C(=O)CN=C(c2ccccc2)c2cc(Cl)ccc21 [Diazepam]
[1]
  Free Cmax highest: 59 nM
[2]
  SIDER ADR on-/off-label: no frequency information
